Source: PubChem BioAssay AID330 (DTP/NCI, 2004)
The list is a part of this screen's results and no random one: it is rich in T/C values a quarter to a half above the control, in often repeated tests (any T/C) and in doses without a T/C. Other doses and runs of a compound stand elsewhere. T/C is the treated group as % of the vehicle group. Some doses have a count of surviving animals in place of a T/C: the source holds a T/C of zero for them, seemingly a mark for toxic or unscored doses. Some survivor counts are full or nearly so, which does not show that the dose was tolerated: survival well below the control is almost never listed, so the zero probably covers shortened survival too. Survivors were counted at the toxicity check, usually on the fifth day, unless a day is given; later deaths do not show. Schedule codes are those of the source, taken here to give the interval after Q, in days (D) or hours (H), and the number of doses after X. Brackets with × count equal records among those shown. Some doses were run more than once; the results are listed from low to high. Some structures stand for samples that the source files as different forms (salt, stereo form or complex); doses refer to the form tested. For survival time, the PubChem record calls one and a half times the control and up active, and a quarter to a half above the control has no call in these data; cut-offs in other NCI protocols can differ. Some T/C values are followed by the survivors on the day toxicity was checked, most often the fifth; without a count, all were alive then.

Test system: P388 leukemia ip, CD2F1 mice, survival T/C
Assay: NCI In Vivo Anticancer Drug Screen. Data for tumor model P388 Leukemia (intraperitoneal) in CD2F1 (CDF1) mice
Details: T/C endpoint: median survival time, higher T/C = longer survival
[1] = dose: 100.0 mg/kg/injection, schedule: Q04DX002 (ip), vehicle: saline with Tween-80
[2] = dose: 200.0 mg/kg/injection, schedule: Q01DX009 (ip), vehicle: saline
[3] = dose: 50.0 mg/kg/injection, schedule: Q01DX009 (ip), vehicle: suspension in saline
[4] = dose: 200.0 mg/kg/injection, schedule: Q01DX001 (ip), vehicle: saline with Tween-80
[5] = dose: 400.0 mg/kg/injection, schedule: Q01DX001 (ip), vehicle: saline with Tween-80
[6] = dose: 200.0 mg/kg/injection, schedule: Q01DX009 (ip), vehicle: saline with Tween-80
[7] = dose: 200.0 mg/kg/injection, schedule: Q04DX003 (ip), vehicle: saline with Tween-80
[8] = dose: 400.0 mg/kg/injection, schedule: Q04DX003 (ip), vehicle: saline with Tween-80
[9] = dose: 100.0 mg/kg/injection, schedule: Q01DX005 (ip), vehicle: Klucel (hydroxypropylcellulose) (HPC)
[10] = dose: 200.0 mg/kg/injection, schedule: Q01DX005 (ip), vehicle: Klucel (hydroxypropylcellulose) (HPC)
[11] = dose: 6.25 mg/kg/injection, schedule: Q01DX005 (ip), vehicle: Klucel (hydroxypropylcellulose) (HPC)
[12] = dose: 12.5 mg/kg/injection, schedule: Q01DX005 (ip), vehicle: Klucel (hydroxypropylcellulose) (HPC)
[13] = dose: 50.0 mg/kg/injection, schedule: Q01DX005 (ip), vehicle: Klucel (hydroxypropylcellulose) (HPC)
[14] = dose: 100.0 mg/kg/injection, schedule: Q01DX009 (ip), vehicle: Klucel (hydroxypropylcellulose) (HPC)
[15] = dose: 200.0 mg/kg/injection, schedule: Q01DX009 (ip), vehicle: Klucel (hydroxypropylcellulose) (HPC)
[16] = dose: 400.0 mg/kg/injection, schedule: Q01DX009 (ip), vehicle: saline with Tween-80

With COC(=O)C(N)Cc1ccc(OCc2ccccc2)cc1 (stereo unspecified) the survivor count (dose: 100.0 mg/kg/injection, schedule: Q01DX009 (ip), vehicle: saline) was 3 of 6, the survivor count [1] was 0 of 6 and 2 of 6 and the survivor count [2] was 0 of 6. The survivor count (dose: 200.0 mg/kg/injection, schedule: Q04DX002 (ip), vehicle: saline with Tween-80) was 0 of 6 and the survivor count (dose: 400.0 mg/kg/injection, schedule: Q04DX002 (ip), vehicle: saline with Tween-80) was 0 of 6.
With O=C(CCl)N1c2ccccc2Sc2c1ccc1ccccc21 the T/C [3] was 125 % of control [5 of 6 alive].
With CC(=O)Nc1c(-c2ccccc2)[nH]c2ccccc12 the survivor count [4] was 4 of 6 and the survivor count [5] was 0 of 6.
For [Cl][Pt+2][Cl].[NH-]c1ccc(S(=O)(=O)O)cc1[NH-], the T/C [1] was 143 % of control.
In the case of CN1C2CCC1CC(Cl)C2 (stereo unspecified), the survivor count (dose: 50.0 mg/kg/injection, schedule: Q01DX005 (ip), vehicle: saline) is reported as 0 of 6, the survivor count (dose: 60.0 mg/kg/injection, schedule: Q01DX005 (ip), vehicle: saline) is reported as 0 of 5 and the survivor count (dose: 100.0 mg/kg/injection, schedule: Q01DX005 (ip), vehicle: saline) is reported as 0 of 6. The survivor count (dose: 120.0 mg/kg/injection, schedule: Q01DX005 (ip), vehicle: saline) was 0 of 5, the survivor count (dose: 200.0 mg/kg/injection, schedule: Q01DX005 (ip), vehicle: saline) was 0 of 6 and the survivor count (dose: 240.0 mg/kg/injection, schedule: Q01DX005 (ip), vehicle: saline) was 0 of 4.
Nc1c(OS(=O)(=O)c2ccccc2)cccc1OS(=O)(=O)c1ccccc1 was tested, and the survivor count [6] was 6 of 6.
For C/C(=N\N=C(\[Se])N1CC(C)OC(C)C1)c1ccccn1 (stereo unspecified), the survivor count [7] was 4 of 6 and the survivor count [8] was 3 of 6.
In the case of O=C1C2=C(Nc3ccccc3N2)OC1c1ccco1 (stereo unspecified), the survivor count [9] is reported as 6 of 6 and the survivor count [10] is reported as 6 of 6.
In the case of CNC(=O)OCc1ccc(NCCN(C)C)c2c(=O)c3cc(O)ccc3oc12, the survivor count [11] is reported as 3 of 6, the survivor count [12] is reported as 1 of 6 and the survivor count (dose: 25.0 mg/kg/injection, schedule: Q01DX005 (ip), vehicle: Klucel (hydroxypropylcellulose) (HPC)) is reported as 0 of 6. The survivor count [13] was 0 of 6.
For CN(C)C(=Nc1ccc(NC(=O)c2ccc(C(=O)Nc3ccc(N=C(Nc4ccccc4)N(C)C)cc3)cc2)cc1)Nc1ccccc1, the survivor count [13] was 0 of 6, the survivor count [9] was 0 of 6 and the survivor count [10] was 0 of 6.
With CC(C)(CO)c1ccccc1[P+](C)(C)c1ccccc1 the survivor count (dose: 50.0 mg/kg/injection, schedule: Q01DX009 (ip), vehicle: Klucel (hydroxypropylcellulose) (HPC)) was 3 of 6, the survivor count [14] was 0 of 6 and the survivor count [15] was 0 of 6.
CCN(CC)CCCNc1cc(C)c2cc(OC)ccc2n1 was tested, and the survivor count (dose: 100.0 mg/kg/injection, schedule: Q01DX001 (ip), vehicle: saline with Tween-80) was 1 of 6, the survivor count [4] was 0 of 6 and the survivor count [5] was 0 of 6.
O=C(OC1(c2nccc3ccccc23)CCNCC1)c1ccccc1 was tested, and the survivor count [9] was 3 of 6 and the survivor count [10] was 0 of 6.
With Oc1ccc(N=Nc2ccc3ccc4cccc5ccc2c3c45)c2cccnc12 the survivor count (dose: 200.0 mg/kg/injection, schedule: Q04DX003 (ip), vehicle: Klucel (hydroxypropylcellulose) (HPC)) was 6 of 6 and the survivor count (dose: 400.0 mg/kg/injection, schedule: Q04DX003 (ip), vehicle: Klucel (hydroxypropylcellulose) (HPC)) was 5 of 6.
For CCOC(=O)NOP(=O)(N1CC1)N1CC1, the T/C (dose: 25.0 mg/kg/injection, schedule: Q01DX001 (ip), vehicle: saline + alcohol) was 144 % of control and the T/C (dose: 100.0 mg/kg/injection, schedule: Q01DX001 (ip), vehicle: saline + alcohol) was 134 % of control.
In the case of OCC1OC(n2ncc3ccccc32)C(O)C1O (stereo unspecified), the T/C (dose: 64.0 mg/kg/injection, schedule: Q01DX002 (ip), vehicle: saline with Tween-80) is reported as 142 % of control.
In the case of CNC(=O)OCc1c(COC(=O)NC)c(-c2ccc(C(F)(F)F)cc2)n(C)c1C, the T/C (dose: 6.25 mg/kg/injection, schedule: Q01DX009 (ip), vehicle: distilled water + Tween-80) is reported as 131 % of control, the T/C (dose: 12.5 mg/kg/injection, schedule: Q01DX009 (ip), vehicle: distilled water + Tween-80, evaluated on day 30) is reported as 142 % of control and the T/C (dose: 12.5 mg/kg/injection, schedule: Q01DX009 (ip), vehicle: distilled water + Tween-80, evaluated on day 40) is reported as 141 % of control. The T/C (dose: 25.0 mg/kg/injection, schedule: Q01DX009 (ip), vehicle: distilled water + Tween-80, evaluated on day 30) was 141 % of control, the T/C (dose: 25.0 mg/kg/injection, schedule: Q01DX009 (ip), vehicle: distilled water + Tween-80, evaluated on day 40) was 149 % of control and the survivor count (dose: 50.0 mg/kg/injection, schedule: Q01DX009 (ip), vehicle: distilled water + Tween-80) was 6 of 6. The survivor count (dose: 100.0 mg/kg/injection, schedule: Q01DX009 (ip), vehicle: distilled water + Tween-80) was 1 of 6 and the survivor count (dose: 200.0 mg/kg/injection, schedule: Q01DX009 (ip), vehicle: distilled water + Tween-80) was 0 of 6.
O=c1[nH]cnc2ncnn12 was tested, and the survivor count (dose: 100.0 mg/kg/injection, schedule: Q01DX009 (ip), vehicle: suspension in saline) was 6 of 6.
With COc1ccc(C(=O)CC2CCCC(CC(=O)c3ccc(OC)cc3)N2C)cc1 (stereo unspecified) the survivor count [6] was 0 of 6 and the survivor count [16] was 0 of 6.
O=C1C=CC(=O)C(N(CCO)CCO)=C1 was tested, and the T/C [3] was 128 % of control and the survivor count (dose: 200.0 mg/kg/injection, schedule: Q01DX009 (ip), vehicle: suspension in saline) was 5 of 6.
For Cc1cc(NC(=O)C(=O)O)cc2c(=O)cc(C(=O)O)[nH]c12, the survivor count [14] was 0 of 6 and 1 of 6 and the survivor count [15] was 0 of 6.
With CCCCOc1ccc2nccc(N/N=C/c3ccc(OC)c4ccccc34)c2c1 the survivor count [9] was 4 of 6 and the survivor count [10] was 0 of 6.
With COC(=O)C(F)C(Br)C(=O)OC (stereo unspecified) the T/C (dose: 25.0 mg/kg/injection, schedule: Q01DX009 (ip), vehicle: saline with Tween-80) was 131 % of control, the T/C (dose: 50.0 mg/kg/injection, schedule: Q01DX009 (ip), vehicle: saline with Tween-80) was 136 % of control and the survivor count (dose: 100.0 mg/kg/injection, schedule: Q01DX009 (ip), vehicle: saline with Tween-80) was 3 of 6 (2×). For the same compound, the survivor count [6] was 0 of 6 (2×) and the survivor count [16] was 0 of 6.
Cc1csc(=S)n1C was tested, and the survivor count [2] was 6 of 6.
In the case of NS(=O)(=O)c1ccc(N=Cc2cnc3ccccc3c2)cc1, the survivor count (dose: 5.0 mg/kg/injection, schedule: Q01DX009 (ip), vehicle: saline) is reported as 6 of 6.
With CC(C)(O)C1CCC2(C)CC(=O)NCCN12 (stereo unspecified) the survivor count (dose: 100.0 mg/kg/injection, schedule: Q01DX001 (ip), vehicle: Klucel (hydroxypropylcellulose) (HPC)) was 1 of 6.
For C[CH2][Sn]([CH2]C)([n]1c2ccccc2c2c(C)c3cnccc3c(C)c21)[n]1c2ccccc2c2c(C)c3cnccc3c(C)c21, the T/C (dose: 3.12 mg/kg/injection, schedule: Q01DX005 (ip), vehicle: Klucel (hydroxypropylcellulose) (HPC)) was 137 and 140 % of control, the T/C [11] was 143 % of control [5 of 6 alive] and the T/C [12] was 141 % of control. For the same compound, the survivor count [12] was 1 of 6, the survivor count [13] was 2 of 6 and the survivor count [9] was 0 of 6. The survivor count [10] was 0 of 6.
With O=[n+]1c2ccccc2n([O-])c2ccccc21.[Cl][Ni][Cl] the survivor count (dose: 50.0 mg/kg/injection, schedule: Q04DX003 (ip), vehicle: saline with Tween-80) was 2 of 6, the survivor count (dose: 100.0 mg/kg/injection, schedule: Q04DX003 (ip), vehicle: saline with Tween-80) was 0 of 6 and the survivor count [7] was 0 of 6. For the same compound, the survivor count [8] was 0 of 6.
